Measurements as given in article PMC8067559.

Target: leucyl-tRNA synthetase 1 precursor with a hexa-histidine tag (pLeuRS1-(His)6) (Arabidopsis thaliana)
Assay: pull-down; His6-tagged precursor added to isolated Arabidopsis mitochondria, import at 8 °C to arrest translocation intermediates; mitochondria ruptured, OM–IM fraction from 20–38% sucrose gradient solubilised with maltoside; Ni-NTA agarose; co-purifying bands by SDS-PAGE, Coomassie or silver staining and protein sequencing; only the target purified

- binding: binds
B1: TIM17-2 (protein, UniProt Q9SP35 1-243)
chain: MGTPETSREPCPDRILDDIGGAFGMGAVGGSAFHFIKGTYNSPKGSRFVGGTQSVSMNAPRTGGSFAVWGGLFSTFDCTMVYLRQKEDPWNSIIAGAATGGFLSMRQGAGAASRSAIFGGVLLALIEGAGIMLNKVLAQPQNMMMEDPGMQGMPGMQGMQGMPGMPGMQGMPGMQGMQMGQMQSQAQIRSESQNQNTASSSSSSSWFGGLFDKKKEEVQPGSESKTEVLESFDAPPVPSFEFK

No constants are given. Whether binding was seen depends on the method and setting. In cells and extracts the contact can be indirect. A result given as binding can be weak or reduced; the word gives no strength.
